Results from patent US20050124562A1, “Bis-quinazoline compounds for the treatment of bacterial infections” (priority 2003, published 2005).
Where a name gives a salt, the structure may show the parent alone. Some of these results come from one statement about several compounds together. At least one structure is not confirmed: it was looked up by name or label, or the drawing left a doubt. Some ranges recur; such a range may be that of the whole group of compounds.

What was measured:
Format in all cases: cell-based
[1] = test system: S. aureus, E. faecalis, S. pyogenes and S. pneumoniae; assay: Broth microdilution MIC (NCCLS), gram-positive strains; conditions: range against some strains of S. aureus
Procedure: (§1) Representative bis-quinazolines were tested for antibacterial activity using the […] microdilution method to determine their minimum inhibitory concentrations (MICs). All compounds were tested using standard methods in accordance with NCCLS guidelines (National Committee for Clinical Laboratory Standards. 2003. Methods for dilution antimicrobial susceptibility testing for bacteria that grow aerobically. Approved Standard M-7 A-6, NCCLS, Wayne, Pa.). The bacterial strains used in the susceptibility tests were obtained from the American Type Culture Collection (ATCC) and included resistant phenotypes such as oxacillin-resistant S. aureus (ORSA) and vancomycin-resistant enterococci (VRE). The minimum bactericidal concentrations (MBCs) were determined for selected organisms. The effect of protein binding on the antibacterial activity of representative bis-quinazolines were determined by conducting MIC tests in the presence of human serum.

M. catarrhalis = assay: Broth microdilution MIC (NCCLS), M. catarrhalis; conditions: some strains of M. catarrhalis
Procedure: as §1

H. influenzae = assay: Broth microdilution MIC (NCCLS), H. influenzae; conditions: some strains of H. influenzae
Procedure: as §1

[2] = test system: efflux mutants of E. coli; assay: Broth microdilution MIC (NCCLS), E. coli efflux mutants
Procedure: as §1

Molecule	MIC [1] [µg/mL]	MIC range (M. catarrhalis) [µg/mL]	MIC range (H. influenzae) [µg/mL]	MICs [2] [µg/mL]
2-[4-Hydroxy-6-(2-morpholin-4-yl-ethoxy)-quinazolin-2-ylamino]-6,7-dimethoxy-quinazolin-4-ol trifluoroacetate salt [Example 150]	<0.06 to 16	2 to 64	16 to 32	16 to 64
5-ethoxy-2-(8-methyl-2,3-dihydro-1,4-dioxa-5,7-diaza-phenanthren-6-ylamino)-quinazolin-4-ol trifluoroacetate salt [Example 83]	<0.06 to 16	–	–	–
CNc1cc(C)c2nc(Nc3nc(C)c4cc(OC)ccc4n3)nc(O)c2c1.O=C(O)C(F)(F)F [Example 23, 6-N-methylamino-2-(6-methoxy-4-methyl-quinazolin-2-ylamino)-8-methyl-quinazolin-4-ol trifluoroacetate salt]	<0.06 to 16	–	–	–
COc1ccc2nc(Nc3nc(O)c4cc(N(C)C)cc(C)c4n3)nc(C)c2c1.O=C(O)C(F)(F)F [Example 24, 6-N-dimethylamino-2-(6-methoxy-4-methyl-quinazolin-2-ylamino)-8-methyl-quinazolin-4-ol trifluoroacetate salt]	<0.06 to 16	–	–	–
COc1cc2nc(Nc3nc(O)c4cc(C)cc(C)c4n3)nc(C)c2c(OC)c1OC.O=C(O)C(F)(F)F [Example 36, 6,8-Dimethyl-2-(5 6,7-trimethoxy-4-methyl-quinazolin-2-ylamino)-quinazolin-4-ol trifluoroacetate salt]	<0.06 to 16	–	–	–
COc1cc2nc(Nc3nc(O)c4cc([N+](=O)[O-])cc(C)c4n3)nc(C)c2cc1OC.O=C(O)C(F)(F)F [Example 66]	<0.06 to 16	2 to 64	16 to 32	16 to 64
COc1cc2nc(Nc3nc(O)c4cc(OCCNC(CO)CC(C)C)ccc4n3)nc(C)c2cc1OC (stereo not shown) [Example 162, 2-(6,7-Dimethoxy-4-methyl-quinazolin-2-ylamino)-6-{2-[(1-hydroxymethyl-3-methylbutyl)-amino]-ethoxy}-quinazolin-4-olTrifluoroacetate salt]	<0.06 to 16	2 to 64	16 to 32	16 to 64
